From article PMC6436931, “Activation of the Endonuclease that Defines mRNA 3′ Ends Requires Incorporation into an 8-Subunit Core Cleavage and Polyadenylation Factor Complex” (Molecular Cell, 2019)
These are yes or no findings as the source states them, for the method shown. For some of these results: In cells and extracts the contact can be indirect. Some binding calls cover weakened binding; strength is not graded here. For some of these results: Tags and fused reporters may be left off the sequences shown. Values belong to the binder of their own block, whether it stands above or below them.

What was measured:
[1] = biological target: T1, Mpe1-3C-SII (full length, C-terminal StrepII tag) (S. cerevisiae) (UniProt P35728); assay: anion exchange chromatography; complexes identified by the Strep-Tactin pull-down subjected to anion exchange chromatography; SDS-PAGE of what stayed associated; both purified
T1 sequence: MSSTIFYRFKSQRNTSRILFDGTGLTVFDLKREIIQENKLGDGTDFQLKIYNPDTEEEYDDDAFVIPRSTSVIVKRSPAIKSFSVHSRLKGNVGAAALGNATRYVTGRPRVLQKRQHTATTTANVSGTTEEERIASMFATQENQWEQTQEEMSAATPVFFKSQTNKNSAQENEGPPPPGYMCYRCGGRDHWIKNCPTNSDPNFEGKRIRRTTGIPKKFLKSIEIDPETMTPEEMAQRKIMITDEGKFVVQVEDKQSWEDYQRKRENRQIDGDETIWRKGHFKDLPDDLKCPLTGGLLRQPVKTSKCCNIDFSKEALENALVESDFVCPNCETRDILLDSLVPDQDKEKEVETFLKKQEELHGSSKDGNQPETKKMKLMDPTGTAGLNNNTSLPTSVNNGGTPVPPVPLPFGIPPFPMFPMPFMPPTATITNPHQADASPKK

[2] = biological target: T1, Mpe1-3C-SII (full length, C-terminal StrepII tag) (S. cerevisiae); assay: cryo-EM structure; cross-linked Ysh1-Mpe1-Yjr141w at 350 nM in 10 mM HEPES pH 7.9, 150 mM NaCl; Volta phase plate; anisotropic 4.8 Å map filtered to 6 Å; crystal structure docked; both purified
[3] = biological target: T1, Mpe1-3C-SII (full length, C-terminal StrepII tag) (S. cerevisiae); assay: pull-down; pairs of Ysh1 and Mpe1 constructs co-expressed with full-length Cft2 in insect cells (baculovirus); StrepII-tagged Mpe1 constructs captured from cell lysates on Strep-Tactin resin; SDS-PAGE
[4] = biological target: T1, Mpe1-3C-SII (full length, C-terminal StrepII tag) (S. cerevisiae); assay: cross-linking; purified Ysh1-Mpe1, Ysh1-Yjr141w and Ysh1-Mpe1-Yjr141w complexes cross-linked with DSBU (BuUrBu) or DSS H12/D12, 45 min, 37°C, 100- or 50-fold excess; trypsin digest, LC-MS/MS; both purified
[5] = biological target: T2, SII-3C-Yjr141w (N-terminal StrepII tag) (S. cerevisiae) (UniProt P47172); assay: as above
T2 sequence: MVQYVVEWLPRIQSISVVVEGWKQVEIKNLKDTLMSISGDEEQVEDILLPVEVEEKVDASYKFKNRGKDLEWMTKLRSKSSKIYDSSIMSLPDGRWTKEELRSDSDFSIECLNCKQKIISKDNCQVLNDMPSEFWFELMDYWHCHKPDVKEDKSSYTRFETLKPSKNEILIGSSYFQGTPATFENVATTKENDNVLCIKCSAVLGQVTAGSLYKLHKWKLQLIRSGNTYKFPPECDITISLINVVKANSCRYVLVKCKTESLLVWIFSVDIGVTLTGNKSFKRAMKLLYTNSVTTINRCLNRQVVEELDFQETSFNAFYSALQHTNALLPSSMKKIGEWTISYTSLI

[6] = biological target: T1, Mpe1-3C-SII (full length, C-terminal StrepII tag) (S. cerevisiae); assay: HDX-MS; purified Ysh1-Mpe1, Ysh1-Yjr141w and Ysh1-Mpe1-Yjr141w complexes; ~95% D2O, 10 mM HEPES pH 7.9, 150 mM NaCl, 1 mM TCEP, 23°C; 0.3, 3, 30 and 300 s in triplicate; difference plots of Ysh1 peptides with and without a partner; both purified
[7] = biological target: T1, Mpe1-3C-SII (full length, C-terminal StrepII tag) (S. cerevisiae); assay: co-purification (StrepTactin affinity, anion exchange, size exclusion chromatography); subunits co-expressed in Sf9 cells; complex captured by the one StrepII-tagged subunit, Mono Q 100-1000 mM NaCl gradient, Superose 6 Increase in 10 mM HEPES pH 7.9, 150 mM NaCl, 1.0 mM TCEP; SDS-PAGE; both purified
[8] = biological target: T3, Pfs2-3C-SII (S. cerevisiae) (UniProt P42841); assay: as above
T3 sequence: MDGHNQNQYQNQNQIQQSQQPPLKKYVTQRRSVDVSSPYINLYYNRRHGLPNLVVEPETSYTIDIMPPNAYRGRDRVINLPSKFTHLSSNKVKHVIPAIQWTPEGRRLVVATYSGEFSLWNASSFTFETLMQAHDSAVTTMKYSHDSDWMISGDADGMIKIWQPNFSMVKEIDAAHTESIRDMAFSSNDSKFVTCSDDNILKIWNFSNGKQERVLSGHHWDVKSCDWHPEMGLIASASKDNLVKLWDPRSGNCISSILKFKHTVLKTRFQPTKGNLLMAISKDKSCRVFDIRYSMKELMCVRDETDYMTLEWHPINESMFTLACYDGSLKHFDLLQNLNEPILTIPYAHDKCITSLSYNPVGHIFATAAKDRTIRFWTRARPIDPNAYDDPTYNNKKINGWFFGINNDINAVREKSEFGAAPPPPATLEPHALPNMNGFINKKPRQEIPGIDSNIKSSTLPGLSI

[9] = biological target: T2, SII-3C-Yjr141w (N-terminal StrepII tag) (S. cerevisiae); assay: as above
[10] = biological target: T4, Mpe1 UBL domain (residues 1–120), crystallized (S. cerevisiae) (UniProt P35728); assay: crystal structure; co-expressed, purified Ysh1-Mpe1 complex at 8.3 mg/ml in 10 mM HEPES pH 7.9, 150 mM NaCl, 1.0 mM TCEP; sitting drop, 26% w/v PEG 3000, 0.1 M CHES pH 8.7, room temperature; 2.3 Å; both purified
T4 sequence: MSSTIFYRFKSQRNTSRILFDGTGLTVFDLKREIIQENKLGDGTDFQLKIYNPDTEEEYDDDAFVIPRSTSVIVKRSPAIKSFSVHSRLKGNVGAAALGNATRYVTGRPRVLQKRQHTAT

[11] = biological target: T5, Ysh1 (full length, untagged) (S. cerevisiae) (UniProt Q06224); assay: pull-down; pairs of Ysh1 and Mpe1 constructs co-expressed with full-length Cft2 in insect cells (baculovirus); StrepII-tagged Mpe1 constructs captured from cell lysates on Strep-Tactin resin; SDS-PAGE
T5 sequence: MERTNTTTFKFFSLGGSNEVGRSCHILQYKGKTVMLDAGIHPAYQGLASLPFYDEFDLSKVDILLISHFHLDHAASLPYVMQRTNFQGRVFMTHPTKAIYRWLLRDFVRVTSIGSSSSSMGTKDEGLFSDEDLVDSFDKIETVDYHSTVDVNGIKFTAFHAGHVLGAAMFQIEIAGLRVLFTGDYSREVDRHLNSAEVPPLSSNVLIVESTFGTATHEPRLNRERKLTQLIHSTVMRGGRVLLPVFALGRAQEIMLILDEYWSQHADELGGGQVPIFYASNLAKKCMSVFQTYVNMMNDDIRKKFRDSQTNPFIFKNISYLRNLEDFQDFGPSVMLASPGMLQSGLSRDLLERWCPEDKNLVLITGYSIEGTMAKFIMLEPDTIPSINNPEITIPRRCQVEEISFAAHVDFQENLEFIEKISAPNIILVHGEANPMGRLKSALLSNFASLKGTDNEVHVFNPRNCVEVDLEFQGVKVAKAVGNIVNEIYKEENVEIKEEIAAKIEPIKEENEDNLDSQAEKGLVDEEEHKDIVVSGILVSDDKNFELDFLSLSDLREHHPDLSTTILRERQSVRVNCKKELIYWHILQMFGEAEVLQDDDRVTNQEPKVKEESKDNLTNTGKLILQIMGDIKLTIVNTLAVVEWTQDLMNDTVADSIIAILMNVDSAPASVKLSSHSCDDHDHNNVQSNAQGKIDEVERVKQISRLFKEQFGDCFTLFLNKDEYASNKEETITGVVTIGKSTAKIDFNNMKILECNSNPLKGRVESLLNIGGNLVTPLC

binding [1]: binds
binding [2]: binds
binding [3]: binds
binding [4]: binds
binding [5]: binds
binding [6]: binds
binding [7]: binds
binding [8]: binds
binding [9]: binds
B1: Ysh1 (full length, untagged) (enzyme, UniProt Q06224 1-779)
chain: T5 sequence

binding [10]: binds
B2: Ysh1 catalytic domain (residues 1–473), crystallized (domain or fragment, UniProt Q06224 1-473)
chain: MERTNTTTFKFFSLGGSNEVGRSCHILQYKGKTVMLDAGIHPAYQGLASLPFYDEFDLSKVDILLISHFHLDHAASLPYVMQRTNFQGRVFMTHPTKAIYRWLLRDFVRVTSIGSSSSSMGTKDEGLFSDEDLVDSFDKIETVDYHSTVDVNGIKFTAFHAGHVLGAAMFQIEIAGLRVLFTGDYSREVDRHLNSAEVPPLSSNVLIVESTFGTATHEPRLNRERKLTQLIHSTVMRGGRVLLPVFALGRAQEIMLILDEYWSQHADELGGGQVPIFYASNLAKKCMSVFQTYVNMMNDDIRKKFRDSQTNPFIFKNISYLRNLEDFQDFGPSVMLASPGMLQSGLSRDLLERWCPEDKNLVLITGYSIEGTMAKFIMLEPDTIPSINNPEITIPRRCQVEEISFAAHVDFQENLEFIEKISAPNIILVHGEANPMGRLKSALLSNFASLKGTDNEVHVFNPRNCVEVDLEFQ

binding [3]: binds
binding [11]: binds weakly
binding [8]: binds
B3: Cft2 (full length, untagged) (protein, UniProt Q12102 1-859)
chain: MTYKYNCCDDGSGTTVGSVVRFDNVTLLIDPGWNPSKVSYEQCIKYWEKVIPEIDVIILSQPTIECLGAHSLLYYNFTSHFISRIQVYATLPVINLGRVSTIDSYASAGVIGPYDTNKLDLEDIEISFDHIVPLKYSQLVDLRSRYDGLTLLAYNAGVCPGGSIWCISTYSEKLVYAKRWNHTRDNILNAASILDATGKPLSTLMRPSAIITTLDRFGSSQPFKKRSKIFKDTLKKGLSSDGSVIIPVDMSGKFLDLFTQVHELLFESTKINAHTQVPVLILSYARGRTLTYAKSMLEWLSPSLLKTWENRNNTSPFEIGSRIKIIAPNELSKYPGSKICFVSEVGALINEVIIKVGNSEKTTLILTKPSFECASSLDKILEIVEQDERNWKTFPEDGKSFLCDNYISIDTIKEEPLSKEETEAFKVQLKEKKRDRNKKILLVKRESKKLANGNAIIDDTNGERAMRNQDILVENVNGVPPIDHIMGGDEDDDEEEENDNLLNLLKDNSEKSAAKKNTEVPVDIIIQPSAASKHKMFPFNPAKIKKDDYGTVVDFTMFLPDDSDNVNQNSRKRPLKDGAKTTSPVNEEDNKNEEEDGYNMSDPISKRSKHRASRYSGFSGTGEAENFDNLDYLKIDKTLSKRTISTVNVQLKCSVVILNLQSLVDQRSASIIWPSLKSRKIVLSAPKQIQNEEITAKLIKKNIEVVNMPLNKIVEFSTTIKTLDISIDSNLDNLLKWQRISDSYTVATVVGRLVKESLPQVNNHQKTASRSKLVLKPLHGSSRSHKTGALSIGDVRLAQLKKLLTEKNYIAEFKGEGTLVINEKVAVRKINDAETIIDGTPSELFDTVKKLVTDMLAKI
